Reference: PubChem BioAssay AID1259254 (NCATS, 2017)
This is one part, drawn at random, of about 59,000 reagents tested. About 1,550 of all reagents (2.6%) were called active. 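G2 share is only a proxy for re-replication; each gene was hit by three separate siRNAs, and active genes were retested.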 Entries without a mark were called inactive. The numbers tell different reagents against one gene apart. Not all columns of the deposit are shown. Not given: the amount of reagent.

- Aim: 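Finding genes that stop cells copying their DNA twice in one cycle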 (primary screen)
- Cells: human HCT116 colorectal cancer cells
- Reagent: single siRNA against human genes
- Time to read-out: 3 days
- Detection: 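Imaged Hoechst DNA stain sorts each cell into a cycle phase by DNA amount; per plate, G2 fraction set to 0% for non-targeting and 100% for GMNN siRNA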
- Scale: G2 robust z-score: higher = more G2 cells, more excess DNA replication
- Rule for the call: 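An siRNA counts as active if its G2 robust z-score lies at least 5 MADs above the screen median; here such calls match roughly 38% of GMNN control or more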

G2 robust z-score, by gene and reagent
SOX10: #1 -0.127; #2 1.72; #3 -0.155
GHITM: #1 4.15; #2 -0.49; #3 0.0655
TSC22D1: #1 -0.601; #2 0.115; #3 -0.315
OR2T34: #1 -0.391; #2 0.12; #3 0.262
HOXB1: #1 1.26; #2 1.05; #3 0.112
CLEC12B: #1 1.09; #2 0.656; #3 -0.326
KRTAP5-10: #1 2.56; #2 1.86; #3 1.18
TMEFF1: #1 1.33; #2 -0.26; #3 0.0852
SLC38A3: #1 0.181; #2 -1.13; #3 -0.505
PRPF40A: #1 -0.52; #2 5.36 (active); #3 -0.834
ABTB3: #1 2.39; #2 -0.209; #3 -0.317
COMMD8: #1 -0.943; #2 -0.00309; #3 -0.761
HRC: #1 1.81; #2 1.25; #3 1.13
HAUS4: #1 -0.193; #2 1.15; #3 3.03
LIF: #1 2.82; #2 7.2 (active); #3 -0.568
VIT: #1 0.836; #2 0.0594; #3 0.0636
ASAH1: #1 -0.842; #2 -1.08; #3 0.836
CD274: #1 3.75; #2 -0.277; #3 1.01
USP51: #1 -0.531; #2 8.39 (active); #3 -0.656
CNIH2: #1 -0.947; #2 0.784; #3 1.09
CENPQ: #1 -1.35; #2 0.68; #3 0.291
CREB3L3: #1 -0.409; #2 -0.944; #3 -1.15
ATP13A1: #1 1.86; #2 0.213; #3 -1.18
TTC23L: #1 3.13; #2 -0.334; #3 3.48
SRP19: #1 5.44 (active); #2 1.65; #3 2.61
TSPAN6: #1 -0.0373; #2 2.54; #3 -0.183
PEX10: #1 0.881; #2 0.948; #3 1.6
ATP8A1: #1 -0.839; #2 -0.347; #3 -1.26
RHD: #1 0.256; #2 1.53; #3 0.259
